Reference: PubChem BioAssay AID493014 (National Center for Advancing Translational Sciences (NCATS), 2011)
The list shows a part of the results. Shown are side measurements of this screen, not its main read-out; they come without a call. Most of these compounds were active or inconclusive in the main read-out, so they are no random draw. Words in brackets tell the shape of the fitted curve; partial curves, single points and poor fits give uncertain potencies.

Experiment: qHTS Assay to Find Inhibitors of Chronic Active B-Cell Receptor Signaling
Conditions: ABC-DLBCL IkBa-CBG/CBR reporter, luminescence ratio (green luciferase fused to IkBa over red control in TMD8 lymphoma cells), 4 h
Outline: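 Compounds up to 46 uM were incubated four hours with TMD8 cells whose green CBG68 luciferase is fused to IkappaBalpha; red CBR luminescence normalised the signal, and concentration-effect curves were fitted to fusion, red and ratio data.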

[1] = measured here: CBR red luminescence, cell number
[2] = measured here: IkBa-CBG green luminescence

| Structure (SMILES) | AC50 [1] | AC50 [2] |
| --- | --- | --- |
| COc1cc(NC(=O)c2cccc(C)c2)ccc1NC(=O)c1cc2ccccc2o1 | 7.94 µM [rising, partial curve, poor fit] | – |
| CN1CCc2c(sc3c2C(=O)NC(c2ccc4c(c2)OCO4)N3)C1 (stereo unspecified) | 23.1 µM [falling, partial curve, poor fit] | – |
| CCOc1ccc(NC(=S)N2CCC(c3nc4ccccc4[nH]3)CC2)cc1 | 17.8 µM [rising, partial curve, poor fit] | – |
| Clc1ccc(-n2cccc2)cn1 | 11.2 µM [rising, partial curve, poor fit] | – |
| N#Cc1c(-c2ccccc2)cc2nc3ccccc3n2c1N | 14.6 µM [falling, partial curve, poor fit] | – |
| CN(C)C(=O)c1ccccc1-c1ccccc1 | 29.1 µM [rising, single point] | – |
| C=CCNC(=O)C(=O)NCC(c1ccc2c(c1)OCO2)N1CCN(c2ccc(F)cc2)CC1 (stereo unspecified) | 20 µM [falling, partial curve] | – |
| Cc1ccc(-n2cnc3sc(C)c(C)c3c2=O)cc1 | 22.4 µM [rising, partial curve, poor fit] | – |
| Cn1c(CCNC(=O)c2ccco2)nc2cc(NC(=O)c3ccco3)ccc21 | 13 µM [falling, partial curve] | – |
| C[C@H](CO)N1C[C@H](C)[C@@H](CN(C)Cc2ccncc2)Oc2c(cccc2N(C)C)C1=O | 0.116 µM [rising, full curve, poor fit] | – |
| COCc1cc(Sc2ccc(OC)cc2)nc(-c2ccccc2)n1 | 6.31 µM [rising, full curve, poor fit] | – |
| CSc1ccc(/C=C/C(=O)c2ccc(NC(=O)Cc3ccccc3)cc2)cc1 | 20 µM [falling, single point] | – |
| CC(C)CNc1c(N)c(=O)oc2ccccc12 | 2.59 µM [falling, partial curve] | – |
| Cc1cc(C(=O)Nc2nc3c(s2)CCCC3)no1 | 6.51 µM [falling, partial curve] | – |
| Cc1cccc(NC(=O)N2CCC(NC(=O)C3CCCCC3)CC2)c1 | 3.98 µM [rising, partial curve, poor fit] | – |
| O=C1C=C(c2ccc(OC(F)(F)F)cc2)C[C@@H](c2ccc(F)cc2)C1 | 25.9 µM [rising, single point] | – |
| CCN(CCCNC(=O)c1cc2c(-c3cccc(OC)c3)nn(C)c2s1)Cc1ccccc1 | 14.1 µM [falling, single point] | – |
| CC(C)Oc1nc(-c2ccc(Cl)cc2)nc2ccccc12 | 8.91 µM [rising, partial curve, poor fit] | – |
| Cc1cnc(NC(=O)Cc2ccc(C)c(C)c2)s1 | 35.5 µM [falling, single point] | – |
| Cc1ccc(N(C(C)C(=O)Nc2cc(Cl)ccc2Oc2ccccc2)S(C)(=O)=O)cc1 (stereo unspecified) | 35.5 µM [falling, single point] | – |
| CCCC(=O)Nc1nc2nc(-c3ccccc3)cc(=O)n2[nH]1 | 29.1 µM [falling, single point] | – |
| Nc1nc(SCC(=O)Nc2ccc(Oc3ccccc3)cc2)n[nH]1 | 0.517 µM [rising, full curve, poor fit] | – |

Gathered by group, the entries above with an aryl thioether with sulfur outside any ring

| Structure (SMILES) | AC50 [1] | AC50 [2] |
| --- | --- | --- |
| COCc1cc(Sc2ccc(OC)cc2)nc(-c2ccccc2)n1 | 6.31 µM [rising, full curve, poor fit] | – |
| CSc1ccc(/C=C/C(=O)c2ccc(NC(=O)Cc3ccccc3)cc2)cc1 | 20 µM [falling, single point] | – |
| Nc1nc(SCC(=O)Nc2ccc(Oc3ccccc3)cc2)n[nH]1 | 0.517 µM [rising, full curve, poor fit] | – |

(cont.)

| Structure (SMILES) | AC50 [1] | AC50 [2] |
| --- | --- | --- |
| Cn1cccc1Cc1nnc(SCC(=O)NC2CCCC2)n1-c1ccc(F)cc1 | 23.1 µM [falling, partial curve, poor fit] | – |
| COc1ccc(Cl)cc1NC(=O)CSc1nnc(Cc2cccn2C)n1-c1ccc(F)cc1 | 23.1 µM [falling, single point] | – |
| O=C(O)/C=C/c1coc2ccc(F)cc2c1=O | 14.6 µM [rising, partial curve, poor fit] | – |
| COc1ccc([C@H]2CC(=O)C=C(c3ccc(-c4ccccc4)c(F)c3)C2)cc1 | 0.0731 µM [rising, full curve, poor fit] | – |
| O=c1cc(C(F)(F)F)nc(SCc2cccc3ccccc23)[nH]1 | 35.5 µM [falling, single point] | – |
| Cc1ccc(OCC(=O)Nc2ccc(O)c(C(=O)O)c2)cc1C | 16.4 µM [falling, partial curve, poor fit] | – |
| O=C(Nc1nnc(S(=O)(=O)N2CCCCCC2)s1)c1ccc(Cl)cc1 | 10 µM [rising, partial curve, poor fit] | – |
| CC(C)N(C)C1CCN(C(=O)Nc2ccc(Cl)c(Cl)c2)CC1 | 35.5 µM [falling, single point] | – |
| COc1ccc(CNC(=O)CN(C)S(=O)(=O)c2ccc3c(c2)c(=O)n(C)c(=O)n3C)cc1 | 6.31 µM [rising, single point] | – |
| O=C(OC(C(=O)NCC1CCCO1)c1ccccc1F)c1ccco1 (stereo unspecified) | 0.794 µM [rising, full curve, poor fit] | – |
| O=C(N=Nc1c(O)n(Cc2ccccc2)c2ccccc12)c1cc2ccccc2cc1O | 0.651 µM [falling, full curve] | – |
| CC/C(=N\NC(N)=O)c1ccc(OC(F)F)cc1 | 20 µM [rising, partial curve, poor fit] | – |
| COc1cc(OC)c(NC(=O)Cc2cccs2)cc1Cl | 1.41 µM [rising, full curve] | – |
| CCOC(=O)N1CCN(C(=O)CN(Cc2ccc(Cl)cc2)S(C)(=O)=O)CC1 | 3.66 µM [rising, full curve, poor fit] | – |
| C/C=C(\C)c1nnc(NC(=O)c2ccco2)s1 | 0.0461 µM [rising, partial curve, poor fit] | – |
| COc1ccc(Nc2ncnc3ccc(C)cc23)cc1 | 35.5 µM [falling, single point] | – |
| CCN(CC)C(=O)C1CCCN(c2ccc([N+](=O)[O-])cc2/C=N/NC(=O)c2cccc(O)c2)C1 (stereo unspecified) | 1.03 µM [falling, full curve, poor fit] | – |
| CC1(C)Cc2ccccc2-c2nc(NN)[nH]c(=O)c21 | 2 µM [falling, partial curve, poor fit] | – |
| Cc1cccc(SCC(=O)Nc2ccccc2[N+](=O)[O-])c1 | 12.6 µM [falling, partial curve, poor fit] | – |
| COCCNCC(=O)Nc1ccc(OC(F)(F)F)cc1 | 5.62 µM [rising, partial curve, poor fit] | – |
| COCC(=O)Nc1cc(C(=O)Nc2ccccc2C)ccc1Cl | 1.26 µM [falling, partial curve, poor fit] | – |
| CCCS(=O)(=O)N1CCCC(C(=O)N2CCCCC2)C1 (stereo unspecified) | 10 µM [rising, single point] | – |

| Structure (SMILES) | AC50 [1] | AC50 [2] |
| --- | --- | --- |
| Cc1cc(Nc2c(C)cccc2C)n2nc(C)nc2n1 | 32.6 µM [rising, single point] | – |
| COc1ccc(CC(=O)NNC(=O)c2nn(Cc3ccccc3)c(=O)c3ccccc23)cc1OC | 7.94 µM [falling, partial curve, poor fit] | – |
| Cc1cccc(Cc2nnc(CCC(=O)NCc3cn4ccccc4n3)o2)c1 | 1 µM [rising, full curve, poor fit] | – |
| NNC(=O)c1cc2c(ccc3ccccc32)o1 | 11.2 µM [falling, single point] | – |
| COc1cc(OC)cc(C(=O)Nc2ccc3c(c2)n(C)c(=O)n3C)c1 | 0.631 µM [falling, full curve, poor fit] | 12.6 µM [falling, partial curve, poor fit] |
| ClCc1c2ccccc2cc2ccccc12 | 6.51 µM [rising, single point] | – |
| O=C(Oc1cccc2cccnc12)c1ccc2c(c1)OCCO2 | 5.8 µM [falling, full curve] | 3.26 µM [falling, full curve] |
| Cc1noc(C)c1CSc1nnc(-c2ccccc2)n1Cc1ccco1 | 35.5 µM [rising, single point] | – |
| C[C@@H](C(=O)Nc1nc2ccc(F)cc2s1)N1C(=O)C2CC=CCC2C1=O (stereo partly specified) | 6.31 µM [falling, full curve, poor fit] | – |
| O=C(Nc1nnc(-c2ccc(F)cc2)o1)c1ccco1 | 6.31 µM [falling, partial curve, poor fit] | – |
| O=C(Cc1ccccc1)Nc1cccc(N2C(=O)C=CC2=O)c1 | 14.6 µM [falling, partial curve, poor fit] | – |
| CCCn1c(=O)c2sccc2n2c(CCCC(=O)NC3CCN(Cc4ccccc4)CC3)nnc12 | 5.62 µM [falling, partial curve, poor fit] | – |
| CC1CCCCN1C(=O)CSc1nc(C2CC2)nc2c1cnn2-c1ccccc1 (stereo unspecified) | 0.366 µM [falling, full curve, poor fit] | – |
| CCOC(=O)C(C(=O)OCC)C(Nc1cccc(Br)c1)c1ccccc1 (stereo unspecified) | 0.891 µM [falling, full curve, poor fit] | – |
| Cc1cc(C)n(-c2ccc(C(=O)Nc3ccc4c(c3)OCO4)cc2)n1 | 2.31 µM [falling, full curve] | – |
| CC(=O)NC(CC(=O)O)c1ccc(F)cc1 (stereo unspecified) | 6.31 µM [falling, single point] | – |
| Cc1cc(C)n(-c2nc3c(c(=O)[nH]c(=O)n3C)n2C(C)C)n1 | 11.2 µM [rising, partial curve, poor fit] | – |
| COC(=O)c1sccc1NC(=O)CSc1ccccc1NS(=O)(=O)c1ccc(F)cc1 | 20.6 µM [falling, single point] | – |
| O=C(/C=C/c1cccc([N+](=O)[O-])c1)Nc1cccc(NC(=O)c2cccs2)c1 | 0.206 µM [falling, full curve, poor fit] | – |
| COc1ccc(-c2csc(NC(=O)CSc3nc(SC)ns3)n2)cc1 | 20.6 µM [falling, single point] | – |

In a second layout: entries from further up
Structure (SMILES),AC50 [1],AC50 [2]
Cc1cc(C)n(-c2nc3c(c(=O)[nH]c(=O)n3C)n2C(C)C)n1,"11.2 µM [rising, partial curve, poor fit]",–
COC(=O)c1sccc1NC(=O)CSc1ccccc1NS(=O)(=O)c1ccc(F)cc1,"20.6 µM [falling, single point]",–
